Test results published in US11306119B2, “Peptide bound to PD-L1 and use thereof” (KYUNGPOOK NATIONAL UNIVERSITY INDUSTRY-ACADEMIC COOPERATION …, priority 2017, dated 2022).
At least one peptide structure holds a part that was inferred or is arguable (an end, a ring closure or a residue). No end group written: not given here.

How the values were obtained:
[1] = test system: CT26 mouse syngeneic colon tumor; experiment: Combination therapy of peptides with doxorubicin in CT26 syngeneic colon tumor model; assay type: in vivo; details: flow cytometry, FIG. 6e; value before increase
Experimental: (§1) 6-8-week-old WT Balb/c mice were purchased. Mice was cared and maintained under the guidelines of the Institutional Animal Care and Use Committee (IACUC) of Kyungpook National University (2014-0001-8.). Tumor was injected onto the lower right flank of the mice. For the in-vivo homing imaging, the tumor was developed for 7 days, after the tumor size reached to 100 mm^3, the mice were injected with 100 μl of […] Flamma-675 NIR fluorescence dye labelled peptides and allow the complete circulation for an hour. After incubation, the mice were anesthetized, and the image was taken using the IVIS imaging system. […] Tumor size was measured using a digital caliper, and the tumor volume was calculated using the formula (Volume ¼ (L−W−H)/2. (Length: longest dimension, Width: shorter dimension, parallel to the mouse body and Height: perpendicular to the length and width). All mice were checked for the ulceration and at the end of the treatment and the mice were sacrificed for the immune cell analysis.
(§2) Tumors were isolated, minced and incubated with a digestion buffer containing collagenase D (5 mg/ml) with the RPMI-1640 medium at 37° C. for 40 min. […] The single cell suspension was made ready to use and CD45 antibody was used to stain the tumor infiltrating leukocytes and then analyzed with following antibodies for CD4, CD8 and F4/80. […]

[2] = test system: CT26 syngeneic tumor; experiment: Antitumor therapy in CT26 syngeneic mouse model (peptide alone); assay type: in vivo; details: i.v. every alternative day, 24 days, FIG. 5b
Experimental: as §1, §2

## CVRARTR [PD-L1Pep-2, CVRARTR]
[1]
  percentage of CD4+ T cells in tumor tissue, starting value ("from"): 1%
[2]
  tumor volume control compared to control peptide and PBS group: effectively controlling the tumor volume
